PubChem BioAssay AID1259275, Sanger Institute – 2017
Purpose: 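Knock-downs that cut viability on their own or combined with BYL719, cetuximab or trametinib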 (primary screen). System: COLO320HSR human colorectal cancer cells. Reagents: siRNA pool against human genes. Conditions: anchor drug added one day after transfection: BYL719 at 1 µM, cetuximab at 5 µg/ml or trametinib at 10 nM; DMSO as vehicle arm. Measurement: 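Viability averaged over replicates as a fraction of the non-targeting pool, a robust z-score for knock-down alone, and synergy scores with BYL719 (1 µM), cetuximab (5 µg/ml) or trametinib (10 nM)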. Scale: robust z-score, siRNA alone: higher = more viable cells; strongly negative means essential; viability, knock-down alone (DMSO): higher = more viable cells; synergy score with BYL719 and synergy score with cetuximab and synergy score with trametinib: higher = stronger combined killing with drug. Active means: 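a gene is called essential when its robust z-score without drug falls below -3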. Meaning of the calls: active = essential (siRNA alone); inactive = no change (siRNA alone).
The whole screen tested 794 reagents; this is a part drawn at random. 13 of all reagents (1.6%) count as active. 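Calls mark knock-downs lethal by themselves, not drug synergy; drugs went in a day after transfection, with DMSO as vehicle.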 No viability above 1 is reported: the scale is capped. Not stated in the record: the amount of reagent, the time to read-out.

| Gene | robust z-score, siRNA alone | viability, knock-down alone (DMSO) (fraction of control) | synergy score with BYL719 | synergy score with cetuximab | synergy score with trametinib | call |
| --- | --- | --- | --- | --- | --- | --- |
| DUSP21 | 0.726 | 1 | -0.0549 | 0.0258 | -0.0259 | inactive |
| PLK2 | 0.334 | 0.965 | -0.0373 | -0.0917 | -0.0157 | inactive |
| FN3KRP | 0.726 | 1 | -0.106 | -0.0854 | -0.0259 | inactive |
| DDR1 | 0.00467 | 0.935 | -0.0013 | -0.128 | 0.0454 | inactive |
| UCK2 | -0.149 | 0.921 | -0.0805 | -0.143 | 0.012 | inactive |
| IGF1R | -0.86 | 0.857 | -0.113 | -0.0564 | -0.12 | inactive |
| GALK1 | -1.44 | 0.804 | -0.0968 | -0.113 | -0.0667 | inactive |
| PHKB | -0.13 | 0.923 | -0.0511 | -0.0888 | -0.0351 | inactive |
| NIM1K | 0.726 | 1 | -0.296 | -0.0893 | -0.0259 | inactive |
| PRKCA | 0.357 | 0.967 | -0.142 | -0.103 | -0.0584 | inactive |
| CAMK2G | 0.726 | 1 | -0.181 | -0.0893 | -0.0259 | inactive |
| PAK1 | 0.209 | 0.953 | -0.123 | -0.132 | -0.0714 | inactive |
| PINK1 | 0.197 | 0.952 | -0.028 | 0.0194 | 0.0107 | inactive |
| ACVR2A | 0.726 | 1 | -0.193 | -0.0893 | -0.0259 | inactive |
| CSNK1G1 | -1.11 | 0.834 | -0.124 | -0.195 | -0.0336 | inactive |
| PRKCE | -1.5 | 0.799 | -0.0186 | -0.153 | -0.11 | inactive |
| BRAF | 0.164 | 0.949 | -0.11 | -0.0406 | -0.025 | inactive |
| EPHB3 | -0.47 | 0.892 | -0.279 | -0.188 | -0.131 | inactive |
| LMBR1 | 0.726 | 1 | -0.296 | -0.0893 | -0.0259 | inactive |
| CAMKK1 | 0.726 | 1 | -0.22 | -0.0893 | -0.0259 | inactive |
| SMAD4 | 0.658 | 0.994 | -0.135 | -0.0949 | -0.0319 | inactive |
| CLK1 | 0.0668 | 0.94 | -0.177 | -0.144 | -0.0839 | inactive |
| CKB | -0.468 | 0.892 | -0.147 | -0.0798 | -0.109 | inactive |
| PRKCH | 0.726 | 1 | -0.227 | -0.0893 | -0.0259 | inactive |
| BUB1 | 0.163 | 0.949 | -0.00254 | 0.0315 | -0.0755 | inactive |
| NEK4 | -0.721 | 0.869 | 0.0366 | -0.177 | -0.0862 | inactive |
| PAK2 | -0.696 | 0.872 | 0.00529 | -0.073 | -0.025 | inactive |
| RIPK4 | -0.116 | 0.924 | -0.196 | -0.12 | -0.0147 | inactive |
| FGFR3 | -0.482 | 0.891 | -0.0243 | -0.156 | 0.00431 | inactive |
| TTBK2 | -2.59 | 0.701 | -0.194 | -0.251 | -0.207 | inactive |
| DGUOK | 0.726 | 1 | -0.198 | -0.0893 | -0.0259 | inactive |
| PIP4K2C | 0.429 | 0.973 | 0.0127 | -0.0914 | 0.0914 | inactive |
| ACVR1C | -0.408 | 0.898 | -0.253 | -0.183 | -0.0765 | inactive |
| CDK5R2 | 0.726 | 1 | -0.105 | -0.0378 | 0.0229 | inactive |
